Experimental data reported in article PMC9132907.
These are yes or no findings as the source states them, for the method shown. In cells and extracts the contact can be indirect. Binding can be weak; no strength is given. Sequences can lack the tags named with a protein.

Sequences of proteins named here, by UniProt entry; tags and fusion partners are left off. A change or cut given only in a name is not applied to a line headed by its entry.
UniProt O15205: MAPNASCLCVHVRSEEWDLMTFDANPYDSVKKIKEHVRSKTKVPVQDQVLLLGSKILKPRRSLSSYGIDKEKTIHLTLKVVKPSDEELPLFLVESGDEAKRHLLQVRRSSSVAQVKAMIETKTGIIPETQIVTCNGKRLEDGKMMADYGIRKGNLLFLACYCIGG

Target: HA-FAT10ΔGG (UniProt O15205)
Assay: co-IP; PANC-1 and BxPC-3 cells co-transfected with Flag-FOXM1 and HA-FAT10 or HA-FAT10ΔGG; Flag-FOXM1 bound to the HA-tagged protein detected

- binding: binds
B1: Flag-FOXM1 (protein, UniProt Q08050 1-763)
chain: MKTSPRRPLILKRRRLPLPVQNAPSETSEEEPKRSPAQQESNQAEASKEVAESNSCKFPAGIKIINHPTMPNTQVVAIPNNANIHSIITALTAKGKESGSSGPNKFILISCGGAPTQPPGLRPQTQTSYDAKRTEVTLETLGPKPAARDVNLPRPPGALCEQKRETCADGEAAGCTINNSLSNIQWLRKMSSDGLGSRSIKQEMEEKENCHLEQRQVKVEEPSRPSASWQNSVSERPPYSYMAMIQFAINSTERKRMTLKDIYTWIEDHFPYFKHIAKPGWKNSIRHNLSLHDMFVRETSANGKVSFWTIHPSANRYLTLDQVFKPLDPGSPQLPEHLESQQKRPNPELRRNMTIKTELPLGARRKMKPLLPRVSSYLVPIQFPVNQSLVLQPSVKVPLPLAASLMSSELARHSKRVRIAPKVLLAEEGIAPLSSAGPGKEEKLLFGEGFSPLLPVQTIKEEEIQPGEEMPHLARPIKVESPPLEEWPSPAPSFKEESSHSWEDSSQSPTPRPKKSYSGLRSPTRCVSEMLVIQHRERRERSRSRRKQHLLPPCVDEPELLFSEGPSTSRWAAELPFPADSSDPASQLSYSQEVGGPFKTPIKETLPISSTPSKSVLPRTPESWRLTPPAKVGGLDFSPVQTSQGASDPLPDPLGLMDLSTTPLQSAPPLESPQRLLSSEPLDLISVPFGNSSPSDIDVPKPGSPEPQVSGLAANRSLTEGLVLDTMNDSLSKILLDISFPGLDEDPLGPDNINWSQFIPELQ
